Laboratory results as given in paper PMC11508090.

Experiments:
Experiment in all cases: proximity labelling; eleven TurboID fusion strains (ndt80, homozygous) and a no-TurboID control, ~24 h sporulation, two replicates; TCA extract, streptavidin-sepharose pull-down, trypsin, UPLC-MS/MS; targets = in both replicates and in neither control
[1] = target: T1, Zip2-TurboID (S. cerevisiae) (UniProt P53061)
T1 sequence: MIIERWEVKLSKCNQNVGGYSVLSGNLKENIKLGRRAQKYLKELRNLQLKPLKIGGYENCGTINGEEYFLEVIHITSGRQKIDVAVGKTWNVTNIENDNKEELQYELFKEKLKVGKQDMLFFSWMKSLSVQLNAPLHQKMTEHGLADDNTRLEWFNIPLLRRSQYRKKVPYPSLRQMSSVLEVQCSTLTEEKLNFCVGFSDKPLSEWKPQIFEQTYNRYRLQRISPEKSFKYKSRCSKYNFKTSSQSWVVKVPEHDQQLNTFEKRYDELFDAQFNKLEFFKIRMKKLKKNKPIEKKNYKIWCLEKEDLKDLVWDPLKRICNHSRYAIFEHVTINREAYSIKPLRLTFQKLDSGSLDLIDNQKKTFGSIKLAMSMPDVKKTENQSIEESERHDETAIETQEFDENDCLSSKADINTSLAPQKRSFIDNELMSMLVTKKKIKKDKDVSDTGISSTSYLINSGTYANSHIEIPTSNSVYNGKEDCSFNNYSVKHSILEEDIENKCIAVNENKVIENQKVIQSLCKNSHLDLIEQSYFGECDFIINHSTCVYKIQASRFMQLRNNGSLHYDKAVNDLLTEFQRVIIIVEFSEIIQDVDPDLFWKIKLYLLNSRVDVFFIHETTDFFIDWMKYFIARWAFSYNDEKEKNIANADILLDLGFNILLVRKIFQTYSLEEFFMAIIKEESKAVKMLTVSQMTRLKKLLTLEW

[2] = target: T2, Ecm11-TurboID (S. cerevisiae) (UniProt Q04110)
T2 sequence: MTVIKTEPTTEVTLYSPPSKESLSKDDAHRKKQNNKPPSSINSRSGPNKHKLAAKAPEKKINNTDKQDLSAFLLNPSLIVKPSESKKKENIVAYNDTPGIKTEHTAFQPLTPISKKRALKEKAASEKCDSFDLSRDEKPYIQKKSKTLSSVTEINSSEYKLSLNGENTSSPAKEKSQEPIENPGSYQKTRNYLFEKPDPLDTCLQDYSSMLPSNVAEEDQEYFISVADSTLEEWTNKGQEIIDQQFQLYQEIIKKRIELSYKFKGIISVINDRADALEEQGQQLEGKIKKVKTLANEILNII

[3] = target: T3, Zip3iTurboID (S. cerevisiae) (UniProt Q06032)
T3 sequence: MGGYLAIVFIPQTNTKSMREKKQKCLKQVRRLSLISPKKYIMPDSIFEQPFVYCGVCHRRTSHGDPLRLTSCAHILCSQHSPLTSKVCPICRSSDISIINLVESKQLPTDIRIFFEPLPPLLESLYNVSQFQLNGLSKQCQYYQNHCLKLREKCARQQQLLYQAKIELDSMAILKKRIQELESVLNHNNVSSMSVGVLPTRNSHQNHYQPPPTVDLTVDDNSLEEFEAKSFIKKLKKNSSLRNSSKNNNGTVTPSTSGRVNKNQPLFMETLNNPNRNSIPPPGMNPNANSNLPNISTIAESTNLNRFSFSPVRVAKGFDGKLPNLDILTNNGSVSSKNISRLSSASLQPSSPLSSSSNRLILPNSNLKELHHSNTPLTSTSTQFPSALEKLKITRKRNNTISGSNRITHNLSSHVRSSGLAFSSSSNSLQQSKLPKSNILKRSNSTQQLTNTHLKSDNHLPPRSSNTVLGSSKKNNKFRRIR

[4] = target: T4, TurboID-Gmc2 (S. cerevisiae) (UniProt Q06201)
T4 sequence: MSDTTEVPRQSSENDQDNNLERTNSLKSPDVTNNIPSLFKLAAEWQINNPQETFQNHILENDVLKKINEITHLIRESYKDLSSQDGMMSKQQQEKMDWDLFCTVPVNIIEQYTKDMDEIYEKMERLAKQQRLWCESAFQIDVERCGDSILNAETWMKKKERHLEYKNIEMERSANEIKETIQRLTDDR

binding [1]: no binding
binding [2]: no binding
binding [3]: no binding
binding [4]: no binding
Substance: Zip4 (S. cerevisiae)

These are yes or no findings as the source states them, for the method shown. In cells and extracts the contact can be indirect. A yes stands for co-enrichment or nearness to the bait. Other partners may have been found. No binding means not detected with the bait.
